Reference: PubChem BioAssay AID330 (DTP/NCI, 2004)
The list is a part of this screen's results and no random one: it is rich in T/C values a quarter to a half above the control, in often repeated tests (any T/C) and in doses without a T/C. Further doses and runs are listed elsewhere. T/C: endpoint of the treated group in % of that of the vehicle group. Some doses have a count of surviving animals in place of a T/C: the source files T/C as zero there, which appears to mark a toxic dose or a test without result, not a measured value. Some survivor counts are full or nearly so, which does not show that the dose was tolerated: the source hardly ever lists a survival T/C far under the control, and the zero likely stands for such cases as well. Survivors were counted at the toxicity check, usually on the fifth day, unless a day is given; later deaths do not show. Schedules are NCI's codes, read here as Q, the interval in days (D) or hours (H), X, the number of doses. For survival time, this PubChem deposit counts one and a half times the control or more as active, and values a quarter to a half above the control carry no call in these data; other NCI protocols may use other cut-offs. Some T/C values are followed by the survivors on the day toxicity was checked, most often the fifth; where none is given, no animal had died by that day.

Tested on: P388 leukemia ip, CD2F1 mice, survival T/C
Assay: NCI In Vivo Anticancer Drug Screen. Data for tumor model P388 Leukemia (intraperitoneal) in CD2F1 (CDF1) mice
Settings: T/C endpoint: median survival time, higher T/C = longer survival
[1] = dose: 60.0 mg/kg/injection, schedule: Q01DX005 (ip), vehicle: saline with Tween-80
[2] = dose: 120.0 mg/kg/injection, schedule: Q01DX005 (ip), vehicle: saline with Tween-80
[3] = dose: 240.0 mg/kg/injection, schedule: Q01DX005 (ip), vehicle: saline with Tween-80
[4] = dose: 100.0 mg/kg/injection, schedule: Q01DX009 (ip), vehicle: saline with Tween-80
[5] = dose: 200.0 mg/kg/injection, schedule: Q01DX005 (ip), vehicle: Klucel (hydroxypropylcellulose) (HPC)

Structure (SMILES): CN(C)c1ccc(/C=N/NC(=O)COc2ccccc2)cc1
- survivor count [1]: 6 of 6
- survivor count [2]: 6 of 6
- survivor count [3]: 6 of 6

Structure (SMILES): CCC1=C[C@@H]2C[C@](C(=O)OC)(c3cc4c(cc3OC)N(C)[C@H]3[C@@](O)(C(=O)OC)[C@H](OC(C)=O)[C@]5(CC)C=CCN6CC[C@]43[C@@H]65)c3[nH]c4ccccc4c3CCN(C1)[C@@H]2O
- T/C (dose: 5.0 mg/kg/injection, schedule: Q01DX001 (ip), vehicle: water): 135 % of control
- T/C (dose: 10.0 mg/kg/injection, schedule: Q01DX001 (ip), vehicle: water): 129 % of control

Structure (SMILES): CC(=O)[O][Hg][CH]1CCC2OC1CC[CH]2[Hg][O]C(C)=O (stereo unspecified)
- survivor count (dose: 25.0 mg/kg/injection, schedule: Q01DX009 (ip), vehicle: saline with Tween-80): 3 of 6
- survivor count (dose: 50.0 mg/kg/injection, schedule: Q01DX009 (ip), vehicle: saline with Tween-80): 0 of 6
- survivor count [4]: 0 of 6
- survivor count (dose: 200.0 mg/kg/injection, schedule: Q01DX009 (ip), vehicle: saline with Tween-80): 0 of 6

Structure (SMILES): NS(=O)(=O)c1ccc(Nc2c3ccccc3nc3ncccc23)cc1
- survivor count (dose: 7.5 mg/kg/injection, schedule: Q01DX005 (ip), vehicle: saline with Tween-80): 6 of 6
- survivor count (dose: 15.0 mg/kg/injection, schedule: Q01DX005 (ip), vehicle: saline with Tween-80): 6 of 6
- survivor count (dose: 30.0 mg/kg/injection, schedule: Q01DX005 (ip), vehicle: saline with Tween-80): 6 of 6
- survivor count [1]: 6 of 6
- survivor count [2]: 5 of 6
- survivor count [3]: 6 of 6

Structure (SMILES): COCCCNC(=O)c1nnn2c1nc(N)c1cc(Cl)ccc12
- survivor count [5]: 6 of 6

Structure (SMILES): COC(=O)c1cc2c(C(=O)OC)cc1CSCc1cccc(c1)CSC2
- survivor count (dose: 50.0 mg/kg/injection, schedule: Q01DX009 (ip), vehicle: suspension in saline): 6 of 6
- survivor count (dose: 100.0 mg/kg/injection, schedule: Q01DX009 (ip), vehicle: suspension in saline): 6 of 6
- survivor count (dose: 200.0 mg/kg/injection, schedule: Q01DX009 (ip), vehicle: suspension in saline): 6 of 6

Structure (SMILES): CCO/C=C/C=C1C(=O)N(C)C(=O)N(C)C1=O
- survivor count (dose: 400.0 mg/kg/injection, schedule: Q01DX009 (ip), vehicle: saline + Tween-80 + alcohol): 3 of 6

Structure (SMILES): c1ccc2nc(N=Nc3cnc4ccccc4n3)cnc2c1
- survivor count (dose: 25.0 mg/kg/injection, schedule: Q01DX001 (ip), vehicle: saline with Tween-80): 6 of 6

Structure (SMILES): C[n+]1c2ccccc2nc2c(N)cc(N)cc21
- T/C (dose: 31.25 mg/kg/injection, schedule: Q01DX009 (ip), vehicle: saline): 127 % of control [4 of 6 alive]
- T/C (dose: 62.5 mg/kg/injection, schedule: Q01DX009 (ip), vehicle: saline): 140 % of control
- T/C (dose: 62.5 mg/kg/injection, schedule: Q04DX003 (ip), vehicle: saline sonified): 127 % of control
- survivor count (dose: 125.0 mg/kg/injection, schedule: Q01DX009 (ip), vehicle: saline): 5 of 6
- T/C (dose: 125.0 mg/kg/injection, schedule: Q04DX003 (ip), vehicle: saline sonified): 140 % of control

Structure (SMILES): CCCC(=O)Nc1nc2ccc([N+](=O)[O-])cc2s1
- survivor count (dose: 12.5 mg/kg/injection, schedule: Q01DX009 (ip), vehicle: saline): 6 of 6
- survivor count (dose: 25.0 mg/kg/injection, schedule: Q01DX009 (ip), vehicle: saline): 6 of 6
- survivor count (dose: 50.0 mg/kg/injection, schedule: Q01DX009 (ip), vehicle: saline): 6 of 6
- survivor count (dose: 100.0 mg/kg/injection, schedule: Q01DX009 (ip), vehicle: saline): 6 of 6

Structure (SMILES): O=C1Nc2ccccc2C1NC(=S)Nc1ccccc1 (stereo unspecified)
- survivor count [3]: 6 of 6

Structure (SMILES): CCCCC(=O)NN
- survivor count [4]: 6 of 6

Structure (SMILES): CN(CCC(C#N)c1ccccc1)Cc1ccccc1 (stereo unspecified)
- survivor count [5]: 0 of 5

Structure (SMILES): CC(=O)[O][Sn]([c]1ccccc1)([c]1ccccc1)[c]1ccccc1
- survivor count (dose: 1.0 mg/kg/injection, schedule: Q04DX003 (ip), vehicle: saline with Tween-80): 3 of 6
- survivor count (dose: 2.5 mg/kg/injection, schedule: Q04DX003 (ip), vehicle: saline with Tween-80): 1 of 6
- survivor count (dose: 5.0 mg/kg/injection, schedule: Q04DX003 (ip), vehicle: saline with Tween-80): 0 of 6
- survivor count (dose: 10.0 mg/kg/injection, schedule: Q04DX003 (ip), vehicle: saline with Tween-80): 0 of 6

Structure (SMILES): CCC(CC)C[Se][Se]CC(CC)CC
- survivor count (dose: 50.0 mg/kg/injection, schedule: Q01DX009 (ip), vehicle: Klucel (hydroxypropylcellulose) (HPC)): 6 of 6
- survivor count (dose: 100.0 mg/kg/injection, schedule: Q01DX009 (ip), vehicle: Klucel (hydroxypropylcellulose) (HPC)): 6 of 6
- survivor count (dose: 200.0 mg/kg/injection, schedule: Q01DX009 (ip), vehicle: Klucel (hydroxypropylcellulose) (HPC)): 0 of 6

Structure (SMILES): C=C1CC(NCC(=O)OCC)=C(O)C1=O
- survivor count [5]: 2 of 6
